According to patent publication US9388405B2, “Method for identifying a subpopulation of mammalian cells with distinctive ribosome translation profiles” (priority 2009, dated 2016):
Some of these results come from one statement about several compounds together.

Tested on: MCF7 mTRdm-fLuc subclone #27
Assay: Topoisomerase 1 inhibitor single-Toxin and two-Toxin (100 nM TPA) dose response, cap-independent
Assay type: cell-based, human
Conditions: for concentrations at which the TPA response was antagonized and fLUC expression reduced: two-Toxin with 100 nM TPA
Protocol: FIG. 28C illustrates the use of single-Toxin Assays to measure the effects of Topoisomerase 1 inhibitors on cap-independent translation in MCF7 cells. Triplicate samples of the MCF7 mTRdm-fLuc subclone #27 were treated with varying concentrations (10 nM to 10 uM range) of the Topoisomerase 1 inhibitors; camptothecin, rubitecan, irinotecan and topotecan. The plate reader values were averaged and expressed as the ratio of treated to untreated samples (Fold Induction). The dashed line represents the level of translational response in untreated controls.
FIG. 28D illustrates the use of a two-Toxin Combinatorial Assay on the MCF7 mTRdm-fLuc subclone #27 treated with 100 nM TPA plus varying doses (10 nM to 10 uM range) of the Topoisomerase 1 inhibitors. The plate reader values were averaged and expressed as the ratio of treated to untreated samples (Fold Induction). The dashed line represents the level of translational response in untreated samples. All four inhibitors acted synergistically with TPA to increase protein activity in the 10 nM two-Toxin assay.
FIG. 28D illustrates the use of a two-Toxin dose response assay using varying dosages of the TopoI inhibitors in combination with the 100 nM TPA translational activator. All four inhibitors acted synergistically with TPA at low doses to increase protein translation. At concentrations higher than 100 nM, camptothecin, rubitecan, and topotecan antagonized the TPA response and reduced the fLUC expression.

Structure (SMILES) | fLUC protein levels relative to untreated control cells (10 uM two-Toxin assay with 100 nM TPA) [%] | fLUC protein levels relative to untreated control cells (single-Toxin, high concentration) [%] | concentrations at which the TPA response was antagonized and fLUC expression reduced
CC[C@@]1(O)C(=O)OCc2c1cc1n(c2=O)Cc2cc3ccccc3nc2-1 [camptothecin] | < 100 | < 100 | higher than 100 nM
CC[C@@]1(O)C(=O)OCc2c1cc1n(c2=O)Cc2cc3c(CN(C)C)c(O)ccc3nc2-1.Cl [topotecan, (S)-10-[(dimethylamino)methyl]-4-ethyl-4,9-dihydroxy-1H-pyrano[3′,4′:6,7]indolizino[1,2-b]quinoline-3,14(4H,12H)-dione monohydrochloride] |  |  | higher than 100 nM
